According to PMC7668531:
No constants are given. Whether binding was seen depends on the method and setting. Binding seen in cells or lysates may run through a third protein. Some entries that bind do so weakly or less than the wild type.

The chains behind the UniProt entries cited, without tags or fusion partners.
UniProt Q921G8: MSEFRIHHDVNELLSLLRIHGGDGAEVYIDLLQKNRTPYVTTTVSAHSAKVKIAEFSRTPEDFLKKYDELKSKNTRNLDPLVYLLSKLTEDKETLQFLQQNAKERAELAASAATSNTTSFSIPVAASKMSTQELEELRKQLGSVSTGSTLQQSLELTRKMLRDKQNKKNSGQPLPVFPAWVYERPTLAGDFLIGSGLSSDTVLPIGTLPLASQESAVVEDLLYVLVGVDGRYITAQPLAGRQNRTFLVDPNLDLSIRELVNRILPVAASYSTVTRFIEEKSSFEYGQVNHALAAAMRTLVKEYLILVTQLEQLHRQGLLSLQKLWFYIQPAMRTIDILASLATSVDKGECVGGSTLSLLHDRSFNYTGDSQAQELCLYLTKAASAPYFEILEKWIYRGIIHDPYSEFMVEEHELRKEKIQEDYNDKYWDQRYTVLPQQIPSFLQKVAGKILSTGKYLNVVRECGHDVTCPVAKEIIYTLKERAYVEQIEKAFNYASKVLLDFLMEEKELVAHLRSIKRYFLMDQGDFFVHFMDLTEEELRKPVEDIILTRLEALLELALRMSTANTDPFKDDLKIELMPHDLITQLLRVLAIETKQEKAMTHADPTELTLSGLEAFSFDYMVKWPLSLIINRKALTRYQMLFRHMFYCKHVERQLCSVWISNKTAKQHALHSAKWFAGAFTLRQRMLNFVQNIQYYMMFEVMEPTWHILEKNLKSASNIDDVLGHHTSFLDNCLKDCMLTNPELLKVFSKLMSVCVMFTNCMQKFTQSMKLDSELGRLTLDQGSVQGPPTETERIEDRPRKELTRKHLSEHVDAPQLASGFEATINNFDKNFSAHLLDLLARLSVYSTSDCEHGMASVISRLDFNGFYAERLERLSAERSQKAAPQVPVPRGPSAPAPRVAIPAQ
UniProt P07737: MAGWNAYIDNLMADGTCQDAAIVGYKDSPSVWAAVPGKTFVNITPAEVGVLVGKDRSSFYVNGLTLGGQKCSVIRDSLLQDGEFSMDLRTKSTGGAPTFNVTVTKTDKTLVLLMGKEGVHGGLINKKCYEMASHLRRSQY
UniProt P62962: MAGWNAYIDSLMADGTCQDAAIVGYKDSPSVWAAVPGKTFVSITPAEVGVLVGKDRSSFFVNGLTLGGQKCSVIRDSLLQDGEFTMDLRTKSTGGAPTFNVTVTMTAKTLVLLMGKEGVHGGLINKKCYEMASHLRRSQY
UniProt Q9BSJ2: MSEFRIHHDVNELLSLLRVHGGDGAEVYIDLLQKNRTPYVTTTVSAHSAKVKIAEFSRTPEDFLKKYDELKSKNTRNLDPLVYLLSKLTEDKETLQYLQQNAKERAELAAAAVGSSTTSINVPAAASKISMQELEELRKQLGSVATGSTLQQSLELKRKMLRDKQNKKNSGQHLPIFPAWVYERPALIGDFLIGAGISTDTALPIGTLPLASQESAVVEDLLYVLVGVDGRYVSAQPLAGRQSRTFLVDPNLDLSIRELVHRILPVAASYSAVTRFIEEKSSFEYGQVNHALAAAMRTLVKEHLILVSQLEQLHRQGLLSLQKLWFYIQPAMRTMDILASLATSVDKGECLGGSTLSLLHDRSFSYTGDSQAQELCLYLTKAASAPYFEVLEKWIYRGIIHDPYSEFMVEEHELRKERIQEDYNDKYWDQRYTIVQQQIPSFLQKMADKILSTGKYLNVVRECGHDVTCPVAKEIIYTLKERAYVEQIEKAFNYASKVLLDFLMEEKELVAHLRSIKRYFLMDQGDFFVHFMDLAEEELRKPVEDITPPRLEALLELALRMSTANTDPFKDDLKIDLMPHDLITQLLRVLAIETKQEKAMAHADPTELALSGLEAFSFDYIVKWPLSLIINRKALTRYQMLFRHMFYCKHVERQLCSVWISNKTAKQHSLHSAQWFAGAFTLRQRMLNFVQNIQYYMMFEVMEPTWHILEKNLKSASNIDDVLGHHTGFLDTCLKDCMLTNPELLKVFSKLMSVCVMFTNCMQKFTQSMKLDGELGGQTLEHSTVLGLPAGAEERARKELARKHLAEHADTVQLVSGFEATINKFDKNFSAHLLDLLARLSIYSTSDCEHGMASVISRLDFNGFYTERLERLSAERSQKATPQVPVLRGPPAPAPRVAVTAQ
UniProt Q9UGJ1: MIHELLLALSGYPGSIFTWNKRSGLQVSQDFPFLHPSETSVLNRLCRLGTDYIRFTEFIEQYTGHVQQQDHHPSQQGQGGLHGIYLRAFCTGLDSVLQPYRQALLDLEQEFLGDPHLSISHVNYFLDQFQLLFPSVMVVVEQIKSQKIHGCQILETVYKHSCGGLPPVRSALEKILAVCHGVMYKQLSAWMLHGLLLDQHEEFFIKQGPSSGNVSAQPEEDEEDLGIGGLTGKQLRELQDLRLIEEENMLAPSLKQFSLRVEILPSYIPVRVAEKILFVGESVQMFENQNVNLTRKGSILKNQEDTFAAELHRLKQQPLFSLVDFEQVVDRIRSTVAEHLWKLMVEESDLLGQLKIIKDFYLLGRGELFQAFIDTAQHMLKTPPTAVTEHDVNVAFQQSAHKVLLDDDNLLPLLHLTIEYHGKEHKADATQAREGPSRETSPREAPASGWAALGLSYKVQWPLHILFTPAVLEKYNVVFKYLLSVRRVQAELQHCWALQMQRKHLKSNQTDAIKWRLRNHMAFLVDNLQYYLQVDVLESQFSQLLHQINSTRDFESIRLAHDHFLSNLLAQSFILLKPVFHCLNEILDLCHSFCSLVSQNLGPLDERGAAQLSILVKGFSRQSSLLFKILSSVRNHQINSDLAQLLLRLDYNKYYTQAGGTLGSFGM
UniProt Q9D4F8: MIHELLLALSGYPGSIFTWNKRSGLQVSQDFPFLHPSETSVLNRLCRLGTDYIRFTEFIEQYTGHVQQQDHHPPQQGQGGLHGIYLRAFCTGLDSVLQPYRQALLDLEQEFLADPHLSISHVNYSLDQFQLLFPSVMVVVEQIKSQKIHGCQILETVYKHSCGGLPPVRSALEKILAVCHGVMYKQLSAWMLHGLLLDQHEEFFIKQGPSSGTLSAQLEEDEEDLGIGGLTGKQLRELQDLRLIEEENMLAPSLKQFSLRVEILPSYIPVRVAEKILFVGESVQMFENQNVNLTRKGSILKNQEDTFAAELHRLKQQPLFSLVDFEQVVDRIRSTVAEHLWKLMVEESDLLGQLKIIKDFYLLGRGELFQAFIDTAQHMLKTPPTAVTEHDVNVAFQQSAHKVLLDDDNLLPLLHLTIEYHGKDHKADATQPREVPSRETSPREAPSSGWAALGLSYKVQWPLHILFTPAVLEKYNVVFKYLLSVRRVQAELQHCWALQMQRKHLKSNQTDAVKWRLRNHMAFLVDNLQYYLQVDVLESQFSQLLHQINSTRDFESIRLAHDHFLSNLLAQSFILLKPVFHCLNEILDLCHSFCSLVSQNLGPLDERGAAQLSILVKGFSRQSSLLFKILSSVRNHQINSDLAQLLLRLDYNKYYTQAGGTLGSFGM

Tests used:
[1] = molecular target: γ-tubulin complex protein 2 (mouse (endogenous in B16)) (UniProt Q921G8); assay: co-IP; extracts of B16 cells in RIPA buffer, Protein A beads saturated with Abs to profilin, γ-tubulin or GCP2; Western blot
[2] = molecular target: profilin 1 (Caco-2 cells) (human (endogenous in Caco-2)) (UniProt P07737); assay: co-IP; extracts of Caco-2 cells in RIPA buffer, Protein A beads saturated with Abs to profilin or γ-tubulin; Western blot
[3] = molecular target: profilin 1 (mouse (endogenous in B16)) (UniProt P62962); assay: co-IP; extracts of B16 cells in RIPA buffer, Protein A beads saturated with Abs to profilin, γ-tubulin or GCP2; Western blot

binding [2]	Substance	binding [3]	other results
	profilin 1 (from UniProt P62962 1-140)		binding [1]: binds
binds	γ-tubulin complex protein 2 (Caco-2 cells) (from UniProt Q9BSJ2 1-902)		
	γ-tubulin complex protein 2 (from UniProt Q921G8 1-905)	binds	
binds	γ-tubulin complex protein 4 (Caco-2 cells) (from UniProt Q9UGJ1 1-667)		
	γ-tubulin complex protein 4 (from UniProt Q9D4F8 1-667)	binds	
